US20240125768A1, “METHODS FOR MODULATING A SRC-1 CONDENSATE” (ETERN BIOPHARMA (SHANGHAI) CO., LTD., priority 2021, published 2024)
These are yes or no findings as the source states them, for the method shown. In cells and extracts the contact can be indirect. Some entries that bind do so weakly or less than the wild type.

Sequences of proteins named here, by UniProt entry; tags and fusion partners are left off. Residues count along the entry.
UniProt P46937: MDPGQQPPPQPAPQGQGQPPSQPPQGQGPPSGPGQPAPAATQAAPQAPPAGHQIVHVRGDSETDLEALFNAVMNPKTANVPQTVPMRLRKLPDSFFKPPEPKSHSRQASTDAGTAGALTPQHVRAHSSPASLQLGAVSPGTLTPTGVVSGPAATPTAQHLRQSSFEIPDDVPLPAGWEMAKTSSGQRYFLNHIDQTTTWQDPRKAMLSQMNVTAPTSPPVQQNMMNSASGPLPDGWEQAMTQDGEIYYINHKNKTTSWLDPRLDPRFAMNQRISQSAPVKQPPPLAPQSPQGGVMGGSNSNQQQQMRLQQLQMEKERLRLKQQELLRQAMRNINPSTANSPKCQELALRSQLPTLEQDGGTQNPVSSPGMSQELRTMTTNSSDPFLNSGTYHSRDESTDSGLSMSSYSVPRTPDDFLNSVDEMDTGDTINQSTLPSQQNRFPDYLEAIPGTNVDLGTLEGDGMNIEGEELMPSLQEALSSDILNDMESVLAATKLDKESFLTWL
UniProt Q15561: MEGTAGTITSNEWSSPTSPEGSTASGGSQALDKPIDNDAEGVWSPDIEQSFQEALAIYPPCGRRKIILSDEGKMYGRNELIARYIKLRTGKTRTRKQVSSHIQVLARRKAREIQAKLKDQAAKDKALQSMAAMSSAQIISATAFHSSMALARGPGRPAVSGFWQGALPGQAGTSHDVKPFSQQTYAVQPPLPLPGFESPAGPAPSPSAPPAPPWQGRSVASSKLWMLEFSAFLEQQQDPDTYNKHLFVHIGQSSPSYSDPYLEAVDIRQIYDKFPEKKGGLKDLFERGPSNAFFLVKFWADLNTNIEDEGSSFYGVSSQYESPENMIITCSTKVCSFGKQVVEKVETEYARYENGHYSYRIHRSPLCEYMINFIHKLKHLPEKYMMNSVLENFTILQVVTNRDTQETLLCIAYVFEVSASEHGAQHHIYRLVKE
UniProt Q15788, residues 2-1441: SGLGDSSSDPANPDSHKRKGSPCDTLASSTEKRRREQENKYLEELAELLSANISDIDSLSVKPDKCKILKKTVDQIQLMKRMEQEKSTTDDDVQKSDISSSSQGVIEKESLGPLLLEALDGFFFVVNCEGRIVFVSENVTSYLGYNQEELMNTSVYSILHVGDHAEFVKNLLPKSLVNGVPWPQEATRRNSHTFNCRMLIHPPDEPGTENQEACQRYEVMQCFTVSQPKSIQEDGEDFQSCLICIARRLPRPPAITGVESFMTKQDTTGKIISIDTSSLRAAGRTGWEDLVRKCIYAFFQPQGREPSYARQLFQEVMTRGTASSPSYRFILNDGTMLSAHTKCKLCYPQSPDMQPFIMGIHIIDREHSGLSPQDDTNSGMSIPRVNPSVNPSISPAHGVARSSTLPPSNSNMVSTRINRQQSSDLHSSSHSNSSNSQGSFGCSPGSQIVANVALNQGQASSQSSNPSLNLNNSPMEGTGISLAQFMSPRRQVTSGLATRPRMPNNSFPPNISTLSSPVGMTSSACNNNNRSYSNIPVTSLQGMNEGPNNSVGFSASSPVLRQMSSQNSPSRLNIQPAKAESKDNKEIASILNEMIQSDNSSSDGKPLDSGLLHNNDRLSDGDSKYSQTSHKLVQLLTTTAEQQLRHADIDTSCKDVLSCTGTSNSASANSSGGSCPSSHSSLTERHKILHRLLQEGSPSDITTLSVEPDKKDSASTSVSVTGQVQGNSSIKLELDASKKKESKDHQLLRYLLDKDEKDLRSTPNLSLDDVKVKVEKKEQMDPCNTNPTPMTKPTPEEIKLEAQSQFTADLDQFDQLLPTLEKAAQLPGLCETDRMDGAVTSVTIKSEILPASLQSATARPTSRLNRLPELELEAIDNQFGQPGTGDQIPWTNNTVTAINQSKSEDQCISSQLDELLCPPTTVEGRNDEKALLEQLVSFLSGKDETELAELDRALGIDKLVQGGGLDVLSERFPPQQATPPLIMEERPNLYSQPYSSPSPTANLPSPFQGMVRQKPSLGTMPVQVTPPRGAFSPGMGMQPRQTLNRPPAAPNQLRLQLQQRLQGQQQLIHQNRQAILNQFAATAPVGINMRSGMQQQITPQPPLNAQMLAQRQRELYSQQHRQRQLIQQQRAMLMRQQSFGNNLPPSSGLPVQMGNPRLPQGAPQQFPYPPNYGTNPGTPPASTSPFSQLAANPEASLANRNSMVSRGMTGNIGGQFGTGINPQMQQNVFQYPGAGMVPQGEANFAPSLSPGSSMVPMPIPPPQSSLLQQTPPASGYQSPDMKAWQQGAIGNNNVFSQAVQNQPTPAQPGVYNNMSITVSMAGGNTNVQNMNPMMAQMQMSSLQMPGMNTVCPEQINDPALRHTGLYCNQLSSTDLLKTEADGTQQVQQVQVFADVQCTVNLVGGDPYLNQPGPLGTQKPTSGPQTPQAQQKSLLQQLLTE

Experiments:
[1] = biological target: endogenous YAP (Yes-associated protein) in SF268 cells (human) (UniProt P46937); experiment: co-immunoprecipitation under endogenous conditions, SF268 cells
[2] = biological target: endogenous TEAD4 in SF268 cells (human) (UniProt Q15561); experiment: as above
[3] = biological target: endogenous TEAD4 in SF268 cells (human) (UniProt Q15561); experiment: co-immunoprecipitation with anti-TEAD4 antibody from SF268 lysate, immunoblot
[4] = biological target: endogenous YAP (Yes-associated protein) in SF268 cells (human) (UniProt P46937); experiment: co-immunoprecipitation with anti-SRC1 antibody from SF268 lysate, immunoblot

Measured: binding

endogenous SRC-1 (steroid receptor coactivator-1) in SF268 cells (from UniProt Q15788 2-1441)
binds: [1] | [2] | [3] | [4]
